The list shows only some results of the screen, not a fair sample: it is rich in T/C values a quarter to a half above the control, in often repeated tests (any T/C) and in doses without a T/C. Other doses and runs of a compound stand elsewhere. T/C gives the treated animals as a percentage of the vehicle group. Some doses have a count of surviving animals in place of a T/C: the source holds a T/C of zero for them, seemingly a mark for toxic or unscored doses. Some doses without a T/C left all or most animals alive at the check, yet need not have been tolerated: the source hardly ever lists a survival T/C far under the control, and the zero likely stands for such cases as well. Survivors were counted at the toxicity check, usually on the fifth day, unless a day is given; later deaths do not show. Schedule codes are those of the source, read here as Q, the interval in days (D) or hours (H), X, the number of doses. Where survival is the endpoint, this PubChem deposit counts one and a half times the control or more as active, and values a quarter to a half above the control carry no call in these data; other NCI protocols may use other cut-offs. Marks such as (2×) count equal records among those shown. Some entries were tested several times; their values stand side by side, smallest first.
Tested on: BDF1 mice, B16 melanoma ip, median survival T/C
Assay: NCI In Vivo Anticancer Drug Screen. Data for tumor model B16 Melanoma (intraperitoneal) in B6D2F1 (BDF1) mice
Conditions: T/C endpoint: median survival time, higher T/C = longer survival
Method in brief: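 Survival or tumor size is measured after treatment of tumor-bearing mice and normalised to the vehicle-treated control group.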

[1] = dose: 80.0 micrograms/kg/injection, schedule: Q01DX009 (ip), vehicle: saline

With Cc1cc2c(c3oc(C4(C)OC4C4OC4C)cc(=O)c13)C(=O)c1c(O)c(C3CC(C)(N(C)C)C(O)C(C)O3)cc(C3CC(N(C)C)C(O)C(C)O3)c1C2=O (stereo unspecified) the T/C (dose: 0.5 micrograms/kg/injection, schedule: Q01DX009 (ip), vehicle: Klucel (hydroxypropylcellulose) (HPC)) was 131 % of control, the T/C (dose: 1.0 micrograms/kg/injection, schedule: Q01DX009 (ip), vehicle: Klucel (hydroxypropylcellulose) (HPC)) was 130 % of control (2×) and the T/C (dose: 2.0 micrograms/kg/injection, schedule: Q01DX009 (ip), vehicle: Klucel (hydroxypropylcellulose) (HPC)) was 130 and 136 % of control. The T/C (dose: 2.5 micrograms/kg/injection, schedule: Q01DX009 (ip), vehicle: Klucel (hydroxypropylcellulose) (HPC)) was 133 % of control, the T/C (dose: 4.0 micrograms/kg/injection, schedule: Q01DX009 (ip), vehicle: Klucel (hydroxypropylcellulose) (HPC)) was 145 % of control and the survivor count (dose: 4.0 micrograms/kg/injection, schedule: Q01DX009 (ip), vehicle: saline) was 10 of 10. For the same compound, the T/C (dose: 5.0 micrograms/kg/injection, schedule: Q01DX009 (ip), vehicle: clinical formulation) was 126 % of control, the survivor count (dose: 8.0 micrograms/kg/injection, schedule: Q01DX009 (ip), vehicle: saline) was 10 of 10 and the survivor count (dose: 10.0 micrograms/kg/injection, schedule: Q01DX009 (ip), vehicle: Klucel (hydroxypropylcellulose) (HPC)) was 10 of 10. For the same compound, the survivor count (dose: 16.0 micrograms/kg/injection, schedule: Q01DX009 (ip), vehicle: saline) was 10 of 10, the survivor count (dose: 20.0 micrograms/kg/injection, schedule: Q01DX009 (ip), vehicle: Klucel (hydroxypropylcellulose) (HPC)) was 10 of 10 and the survivor count (dose: 20.0 micrograms/kg/injection, schedule: Q01DX009 (ip), vehicle: clinical formulation) was 10 of 10. The T/C (dose: 20.0 micrograms/kg/injection, schedule: Q01DX009 (ip), vehicle: saline) was 128 % of control, the survivor count (dose: 30.0 micrograms/kg/injection, schedule: Q01DX009 (ip), vehicle: saline) was 10 of 10 and the survivor count (dose: 40.0 micrograms/kg/injection, schedule: Q01DX009 (ip), vehicle: clinical formulation) was 10 of 10. For the same compound, the survivor count (dose: 40.0 micrograms/kg/injection, schedule: Q01DX009 (ip), vehicle: saline) was 6 of 6, the survivor count (dose: 80.0 micrograms/kg/injection, schedule: Q01DX009 (ip), vehicle: clinical formulation) was 9 of 10 and the T/C [1] was 133 % of control. The survivor count [1] was 6 of 6, the survivor count (dose: 160.0 micrograms/kg/injection, schedule: Q01DX009 (ip), vehicle: clinical formulation) was 3 of 10 and the survivor count (dose: 160.0 micrograms/kg/injection, schedule: Q01DX009 (ip), vehicle: saline) was 10 of 10.
CCCN(CCC)CC(C)=O was tested, and the survivor count (dose: 400.0 mg/kg/injection, schedule: Q04DX003 (ip), vehicle: Klucel (hydroxypropylcellulose) (HPC)) was 0 of 10.
For C1CC[N-]CC1.CC(=N\O)/C(C)=N/O.CC(=N\O)/C(C)=N/O.C[CH-]CC.[Co+2], the survivor count (dose: 100.0 mg/kg/injection, schedule: Q01DX009 (ip), vehicle: Klucel (hydroxypropylcellulose) (HPC)) was 9 of 10.
For O=C1c2ccccc2C(=O)c2c(NCCCCCO)ccc(NCCCCCO)c21, the survivor count (dose: 64.0 mg/kg/injection, schedule: Q01DX009 (ip), vehicle: Klucel (hydroxypropylcellulose) (HPC)) was 10 of 10 and the survivor count (dose: 128.0 mg/kg/injection, schedule: Q01DX009 (ip), vehicle: Klucel (hydroxypropylcellulose) (HPC)) was 10 of 10.
In the case of c1ccc2c[n+](CCCCCCCCCC[n+]3ccc4ccccc4c3)ccc2c1, the survivor count (dose: 20.0 mg/kg/injection, schedule: Q01DX009 (ip), vehicle: saline) is reported as 6 of 10, the survivor count (dose: 20.0 mg/kg/injection, schedule: Q04DX003 (ip), vehicle: saline) is reported as 10 of 10 and the survivor count (dose: 40.0 mg/kg/injection, schedule: Q04DX003 (ip), vehicle: saline) is reported as 8 of 10.
O=NN(CCCl)C(=O)NC1c2cc(Cl)ccc2-c2c(Cl)cc(Cl)cc21 (stereo unspecified) was tested, and the survivor count (dose: 400.0 mg/kg/injection, schedule: Q01DX009 (ip), vehicle: saline with Tween-80) was 6 of 6.
With O=C1c2ccccc2C(=O)N1C[P+](c1ccccc1)(c1ccccc1)c1ccccc1 the survivor count (dose: 50.0 mg/kg/injection, schedule: Q01DX009 (ip), vehicle: water) was 10 of 10.
For COC(=O)C1(C(=O)OC)C=CCCC1=O, the survivor count (dose: 400.0 mg/kg/injection, schedule: Q01DX009 (ip), vehicle: Klucel (hydroxypropylcellulose) (HPC)) was 9 of 10.
